Laboratory results taken from article doi:10.1101/2022.10.07.511216.
Results are given in words; binding and its absence hold for the method and conditions named. Binding seen in cells or lysates may run through a third protein. Some binding calls cover weakened binding; strength is not graded here. For some assays here: Sequences can lack the tags named with a protein.

Sequences of proteins named here, by UniProt entry; tags and fusion partners are left off.
UniProt Q8N697: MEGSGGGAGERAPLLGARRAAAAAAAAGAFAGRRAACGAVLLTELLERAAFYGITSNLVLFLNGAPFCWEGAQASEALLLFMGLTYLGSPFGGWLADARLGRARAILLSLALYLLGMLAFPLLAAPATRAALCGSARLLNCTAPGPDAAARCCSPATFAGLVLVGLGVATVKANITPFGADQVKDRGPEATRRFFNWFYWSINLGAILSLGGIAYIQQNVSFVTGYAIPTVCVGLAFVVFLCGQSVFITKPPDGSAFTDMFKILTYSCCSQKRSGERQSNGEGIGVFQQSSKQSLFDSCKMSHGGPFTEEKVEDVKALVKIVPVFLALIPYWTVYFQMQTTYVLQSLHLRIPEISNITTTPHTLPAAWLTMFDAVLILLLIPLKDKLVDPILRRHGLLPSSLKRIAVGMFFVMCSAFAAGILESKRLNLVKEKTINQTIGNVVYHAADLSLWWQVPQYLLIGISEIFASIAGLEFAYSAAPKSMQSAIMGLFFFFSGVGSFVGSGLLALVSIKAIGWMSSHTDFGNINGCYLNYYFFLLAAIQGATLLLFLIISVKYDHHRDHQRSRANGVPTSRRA

Experiments:
[1] = target: T1, FLAG-TASL (transiently overexpressed in HEK293T cells) (UniProt Q9HAI6); test: co-IP
T1 sequence: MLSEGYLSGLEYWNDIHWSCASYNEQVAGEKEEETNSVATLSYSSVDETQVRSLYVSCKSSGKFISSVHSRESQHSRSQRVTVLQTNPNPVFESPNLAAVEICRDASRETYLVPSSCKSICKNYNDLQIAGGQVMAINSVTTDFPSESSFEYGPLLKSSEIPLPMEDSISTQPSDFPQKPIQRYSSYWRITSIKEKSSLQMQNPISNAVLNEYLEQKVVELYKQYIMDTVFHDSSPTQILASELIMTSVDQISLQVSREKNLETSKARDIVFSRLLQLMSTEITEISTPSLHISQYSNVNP

[2] = target: HA-SLC15A4 (HA-tagged SLC15A4 stably overexpressed in CAL-1 cells) (human) (UniProt Q8N697); test: co-IP

HA-SLC15A4 (transiently overexpressed in HEK293T cells) (from UniProt Q8N697 1-577)
binding [1]: binds

B1: endogenous TASL (protein, UniProt Q9HAI6 1-301)
chain: MLSEGYLSGLEYWNDIHWSCASYNEQVAGEKEEETNSVATLSYSSVDETQVRSLYVSCKSSGKFISSVHSRESQHSRSQRVTVLQTNPNPVFESPNLAAVEICRDASRETYLVPSSCKSICKNYNDLQIAGGQVMAINSVTTDFPSESSFEYGPLLKSSEIPLPMEDSISTQPSDFPQKPIQRYSSYWRITSIKEKSSLQMQNPISNAVLNEYLEQKVVELYKQYIMDTVFHDSSPTQILASELIMTSVDQISLQVSREKNLETSKARDIVFSRLLQLMSTEITEISTPSLHISQYSNVNP
binding [2]: binds
